The list shows only some results of the screen, not a fair sample: it is rich in T/C values a quarter to a half above the control, in often repeated tests (any T/C) and in doses without a T/C. Other doses and runs of a compound stand elsewhere. T/C is the treated group as % of the vehicle group. Some doses have a count of surviving animals in place of a T/C: the source holds a T/C of zero for them, seemingly a mark for toxic or unscored doses. Some doses without a T/C left all or most animals alive at the check, yet need not have been tolerated: survival well below the control is almost never listed, so the zero probably covers shortened survival too. Survivors were counted at the toxicity check, usually on the fifth day, unless a day is given; later deaths do not show. Schedule codes are those of the source, taken here to give the interval after Q, in days (D) or hours (H), and the number of doses after X.
Test system: L1210 leukemia ip in BDF1 mice, survival T/C
Experiment: NCI In Vivo Anticancer Drug Screen. Data for tumor model L1210 Leukemia (intraperitoneal) in B6D2F1 (BDF1) mice
Settings: T/C endpoint: mean survival time, higher T/C = longer survival
[1] = dose: 100.0 mg/kg/injection, schedule: Q04DX003 (ip), vehicle: Klucel (hydroxypropylcellulose) (HPC)
[2] = dose: 200.0 mg/kg/injection, schedule: Q04DX003 (ip), vehicle: Klucel (hydroxypropylcellulose) (HPC)
[3] = dose: 400.0 mg/kg/injection, schedule: Q04DX003 (ip), vehicle: Klucel (hydroxypropylcellulose) (HPC)
[4] = dose: 400.0 mg/kg/injection, schedule: Q01DX009 (ip), vehicle: Klucel (hydroxypropylcellulose) (HPC)

With `[Cl][Hg][c]1ccco1` the survivor count (dose: 6.25 mg/kg/injection, schedule: Q01DX009 (ip), vehicle: Klucel (hydroxypropylcellulose) (HPC)) was 3 of 6, the survivor count (dose: 12.5 mg/kg/injection, schedule: Q01DX009 (ip), vehicle: Klucel (hydroxypropylcellulose) (HPC)) was 0 of 6 and the survivor count (dose: 25.0 mg/kg/injection, schedule: Q01DX009 (ip), vehicle: Klucel (hydroxypropylcellulose) (HPC)) was 0 of 6. The survivor count (dose: 50.0 mg/kg/injection, schedule: Q01DX009 (ip), vehicle: Klucel (hydroxypropylcellulose) (HPC)) was 0 of 6, the survivor count (dose: 100.0 mg/kg/injection, schedule: Q01DX009 (ip), vehicle: Klucel (hydroxypropylcellulose) (HPC)) was 0 of 6 and the survivor count (dose: 100.0 mg/kg/injection, schedule: Q04DX002 (ip), vehicle: Klucel (hydroxypropylcellulose) (HPC)) was 0 of 3. For the same compound, the survivor count (dose: 200.0 mg/kg/injection, schedule: Q04DX002 (ip), vehicle: Klucel (hydroxypropylcellulose) (HPC)) was 0 of 3 and the survivor count (dose: 400.0 mg/kg/injection, schedule: Q04DX002 (ip), vehicle: Klucel (hydroxypropylcellulose) (HPC)) was 0 of 3.

With `Cc1ccc(C(=O)Nc2ccc(OCCCc3c(N)nc(N)nc3N)cc2)cc1S(=O)(=O)F` the survivor count [1] was 3 of 6, the survivor count [2] was 1 of 6 and the survivor count [3] was 0 of 6.

For `COC(=O)c1ccc(N)cc1O`, the survivor count [4] was 4 of 6.

With `CC1(CCl)OCCO1` the survivor count [4] was 5 of 6.

In the case of `O=C1c2ccccc2C(=O)N1C1CCC(O)CC1` (configuration not stated), the survivor count (dose: 200.0 mg/kg/injection, schedule: Q01DX001 (ip), vehicle: saline with Tween-80) is reported as 1 of 6 and the survivor count (dose: 400.0 mg/kg/injection, schedule: Q01DX001 (ip), vehicle: saline with Tween-80) is reported as 0 of 6.

With `NNc1c(F)c(N)c(F)c(F)c1F` the survivor count (dose: 25.6 mg/kg/injection, schedule: Q04DX002 (ip), vehicle: saline with Tween-80) was 3 of 3, the survivor count (dose: 64.0 mg/kg/injection, schedule: Q04DX002 (ip), vehicle: saline with Tween-80) was 0 of 3 and the survivor count (dose: 160.0 mg/kg/injection, schedule: Q04DX002 (ip), vehicle: saline with Tween-80) was 0 of 3. For the same compound, the survivor count (dose: 400.0 mg/kg/injection, schedule: Q04DX002 (ip), vehicle: saline with Tween-80) was 0 of 3.

For `ClCC1CNC(c2ccccc2)O1` (configuration not stated), the survivor count (dose: 100.0 mg/kg/injection, schedule: Q04DX003 (ip), vehicle: saline with Tween-80) was 0 of 6, the survivor count (dose: 200.0 mg/kg/injection, schedule: Q04DX003 (ip), vehicle: saline with Tween-80) was 0 of 6 and the survivor count (dose: 400.0 mg/kg/injection, schedule: Q04DX003 (ip), vehicle: saline with Tween-80) was 0 of 6.

`CCC(=O)c1ccc(N=Nc2c(N)nc(N)nc2N)cc1` was tested, and the survivor count (dose: 400.0 mg/kg/injection, schedule: Q01DX001 (ip), vehicle: saline) was 0 of 4.

In the case of `CC(C)NNC(=O)C(C)N` (configuration not stated), the survivor count (dose: 400.0 mg/kg/injection, schedule: Q04DX003 (ip), vehicle: saline) is reported as 4 of 4.

In the case of `CC(C)=CCN(CC=C(C)C)CCC(C(N)=O)c1cccc2ccccc12` (configuration not stated), the survivor count [1] is reported as 0 of 6, the survivor count [2] is reported as 1 of 6 and the survivor count [3] is reported as 0 of 6.

— PubChem BioAssay AID248 (DTP/NCI, 2004)
